Experimental data published in the supplement of paper PMC12823440, “Inhibitors supercharge kinase turnover through native proteolytic circuits” (Nature, 2025).
Where a name gives a salt, the structure may show the parent alone. The list shows a part of the results. Hit calls seldom repeat between salt and free forms of one compound.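 Kinases were expressed as nanoluciferase fusions in K562 cells and luminescence was read every 4 h between 2 and 18 h as percent of control, DMSO set to 100% and a positive control to 0%. A time point counts as decreased when the signal drops significantly (2 sigma). The hit call is the authors' own, does not follow from the count of time points alone, and its rule is not shown.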

Chains of the proteins cited; added tags and fusions are not shown.
UniProt Q15418, whole entry: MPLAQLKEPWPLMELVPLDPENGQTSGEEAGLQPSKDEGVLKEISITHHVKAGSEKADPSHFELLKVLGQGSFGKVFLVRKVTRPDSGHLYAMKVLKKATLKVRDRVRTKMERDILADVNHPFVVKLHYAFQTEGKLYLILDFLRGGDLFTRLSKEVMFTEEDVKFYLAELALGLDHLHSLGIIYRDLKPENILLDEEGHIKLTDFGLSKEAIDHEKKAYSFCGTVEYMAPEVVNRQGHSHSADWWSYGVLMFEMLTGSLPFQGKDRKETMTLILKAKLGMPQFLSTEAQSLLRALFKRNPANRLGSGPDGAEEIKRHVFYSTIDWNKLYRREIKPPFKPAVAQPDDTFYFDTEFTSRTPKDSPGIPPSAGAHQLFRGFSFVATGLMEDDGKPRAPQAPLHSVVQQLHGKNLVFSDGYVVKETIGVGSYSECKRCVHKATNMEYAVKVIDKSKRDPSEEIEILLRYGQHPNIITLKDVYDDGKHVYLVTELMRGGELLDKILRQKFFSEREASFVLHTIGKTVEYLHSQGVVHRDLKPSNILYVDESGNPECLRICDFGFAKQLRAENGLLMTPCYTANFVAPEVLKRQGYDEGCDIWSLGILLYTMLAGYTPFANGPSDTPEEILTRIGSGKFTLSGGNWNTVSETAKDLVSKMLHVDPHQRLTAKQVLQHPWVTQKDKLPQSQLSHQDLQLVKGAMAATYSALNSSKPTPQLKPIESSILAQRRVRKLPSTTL

biological target: RPS6KA1 (UniProt Q15418); test: kinase-Nluc reporter destabilization hit call (1 = scored as downregulated) (binary); higher = compound decreases kinase abundance; settings: K562; 2-18 h

kinase-Nluc reporter destabilization hit call, inactive:
Cc1cc(C)nc(NS(=O)(=O)c2ccc(NC(=S)NC(=O)COc3ccc(Br)cc3Cl)cc2)n1 (2.5 µM) 0
Oc1ccc(/C=C/c2cc(O)cc(O)c2)cc1 [Resveratrol] (10 µM) 0
COc1ccc(S(=O)(=O)NCc2ccc(C(=O)NCCc3ccc(Cl)cn3)cc2)cc1 (10 µM) 0
O=c1[nH]c(C2CCCN2)nc2c1oc1ccc(Cl)cc12 (stereo not drawn) [XL413 (hydrochloride)] (10 µM) 0
O=C(NC1CCOCC1)c1ccc(-c2cc(-c3c[nH]nc3-c3ccccn3)ccn2)cc1 (10 µM) 0
N#Cc1c2nc3ccccc3nc2n2ccc(NC(=O)c3cccs3)cc12 (10 µM) 0
COCCNc1cc(NC(=O)N2CCCc3cc(CN4CCN(C)CC4=O)c(C=O)nc32)ncc1C#N [Roblitinib] (10 µM) 0
CN(C)CCC=C1c2ccccc2CCc2ccccc21 [Amitriptyline (hydrochloride)] (2.5 µM) 0
Cn1cc(C2=C(c3cn(CCCSC(=N)N)c4ccccc34)C(=O)NC2=O)c2ccccc21 [Ro 31-8220 (mesylate)] (2.5 µM) 0
CC(C)(C)n1nc(Cc2ccccc2O)c2c(N)ncnc21 (10 µM) 0
COc1cc2ncnc(Nc3ccc(F)c(Cl)c3)c2cc1NC(=O)/C=C/CN1CCCCC1 [Dacomitinib] (10 µM) 0
C[C@@H]1COCCN1c1nc(-c2cnc(N)cc2C(F)F)nc(N2[C@H](C)COC[C@@H]2C)n1 (2.5 µM) 0
COc1cc2ncnc(Nc3ccccc3)c2cc1OC (10 µM) 0
O=C(Nc1nc2ccccc2[nH]1)c1cccc([N+](=O)[O-])c1 [IRAK-4 protein kinase inhibitor 2] (10 µM) 0
Cc1ccc(Oc2nc3cc(-c4ccc(-c5ccccc5)cc4)c(Cl)cc3[nH]2)cc1C(=O)O (10 µM) 0
c1ccc(-c2nc3c(c(-n4ccc5cnccc54)n2)CCC3)nc1 (10 µM) 0
Cn1ncc2cc(-c3cnc(N)c(Cl)c3N3CCC4(CCNC4=O)CC3)ccc21 (10 µM) 0
C[C@H](Nc1ncnc2nc[nH]c12)c1cc2cccc(Cl)c2c(=O)n1-c1ccccc1 [Duvelisib] (10 µM) 0
CS(=O)(=O)c1ccc(-c2cnc(N)c(-c3ccc(C(F)(F)F)nc3)c2)cc1 (10 µM) 0
c1cc(NC2CCNCC2)nc(-c2cnc3ccccn23)c1 [IRAK inhibitor 1] (10 µM) 0
C[C@@H]1CCNC(=O)c2cc3ccc(C(=O)Nc4nc5ccccc5n4CCCN(C)C)cc3n21 (10 µM) 0
Cc1cnc(NC2CCOCC2)nc1-n1cnc(C(=O)N[C@H](CN)c2cc(F)cc(Cl)c2)c1 (10 µM) 0
O=C(NCc1cccc(O)c1)Nc1nc(-c2ccncc2)cs1 (10 µM) 0
Cc1cc2sc(NC(=O)Cc3ccccc3)nc2cc1Cl (10 µM) 0
COc1cc2ncnc(-n3nc(-c4ccccn4)nc3N)c2cc1OC (10 µM) 0
O=C(N[C@@H](C1CC1)C(F)(F)F)c1cc(-c2cnn3cc(-c4ccc(F)cc4)cnc23)cs1 (10 µM) 0
O=C1/C(=C\c2ccc(Cl)cc2)C=C(c2ccccc2)N1c1ccc(O)cc1 (2.5 µM) 0
CNC(=O)c1ccccc1Nc1nc(Nc2ccc3c(c2OC)CCC[C@H](N2CCN(CCO)CC2)C3)ncc1Cl (10 µM) 0
C=CC(=O)Nc1cccc(CNc2nc(Nc3ccc(N4CCN(C)CC4)cc3OC)ncc2Cl)c1 (10 µM) 0
CC(C)=CCc1c(-c2ccc(O)cc2O)oc2c3c(cc(O)c2c1=O)OC(C)(C)C=C3 [Morusin] (2.5 µM) 0
CN1CCC(c2ccccc2CC(C)(C)Nc2nc(N3CCOCC3)nc(-n3c(C(F)F)nc4ccccc43)n2)CC1 [Zandelisib] (10 µM) 0
CC(C)(O)[C@H]1CC[C@H](Nc2ccc3ncc(-c4cccc(C(F)(F)F)c4)n3n2)CC1 (10 µM) 0
CC(C)c1cc(/C=C(\C#N)C(=O)NCCCc2ccccc2)cc(C(C)C)c1O (10 µM) 0
CCOC(=O)N1C/C(=C/c2ccccc2F)C(=O)/C(=C\c2ccccc2F)C1 (2.5 µM) 0
C=CC(=O)Nc1cccc(-c2cccc3cnc(Nc4ccc(N5CCN(CCO)CC5)c(F)c4F)nc23)c1 [Olafertinib] (2.5 µM) 0
COc1cc(N2CCOCC2)ccc1Nc1ncc(Cl)c(Nc2ccccc2NS(C)(=O)=O)n1 (2.5 µM) 0
Nc1n[nH]c2nc(-c3ccc(NS(=O)(=O)c4cc(Cl)ccc4F)cc3)cnc12 (10 µM) 0
Nc1c(C(=O)NCc2ccc(C(=O)NCCCC3CCCCC3)cc2)cnn1-c1ccccc1 (2.5 µM) 0

Reprinted from above, two compounds:
kinase-Nluc reporter destabilization hit call, inactive:
Cc1ccc(Oc2nc3cc(-c4ccc(-c5ccccc5)cc4)c(Cl)cc3[nH]2)cc1C(=O)O (10 µM) 0
c1ccc(-c2nc3c(c(-n4ccc5cnccc54)n2)CCC3)nc1 (10 µM) 0
